Reference: PubChem BioAssay AID2685 (National Center for Advancing Translational Sciences (NCATS), 2010)
The list shows a part of the results. Further columns of the screen follow, without active or inactive calls. The list favours compounds with an active or inconclusive main result. The note in brackets gives the kind of curve behind each potency; many fits are weak.

Assay: qHTS Assay for Lipid Storage Modulators in Drosophila S3 Cells;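 as to cell number change: cells counted by Cell Tracker Red CMTPX staining in the red channel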
Settings: BODIPY lipid droplet fluorescence, 18-24 h; for cell number change: measured here: cell count max response, cells fed with added oleic acid
Method in brief: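 Laser-scanning cytometry quantifies lipid droplet accumulation (500–530 nm total intensity; droplet/cell object ratio) in oleic acid-fed (400 uM added) Drosophila S3 cells treated with a concentration series. 20 uM Triacsin C defined 100% inhibition.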

[1] = measured here: lipid fluorescence (Fed channel) AC50, cells fed with added oleic acid
[2] = measured here: cell number channel AC50, cells fed with added oleic acid

Row | Compound | cell number change [%] | AC50 [1] | AC50 [2]
1 | COc1ccc(NCN2C(=O)CCC2=O)cc1 | -18.8 | 29.1 µM [falling, partial curve] | –
2 | COc1ccc(C2Nc3ccccc3C(=O)N2NS(=O)(=O)c2ccc(C)cc2)cc1OC (stereo not drawn) | 9.52 | – | –
3 | O=C(COC(=O)c1cc[n+]([O-])cc1)Nc1cccc(Br)c1 | – | 29.1 µM [rising, single point] | –
4 | CC(=O)Nc1ccc(NS(=O)(=O)c2ccc(C)cc2)c([N+](=O)[O-])c1 | 12.6 | 0.00517 µM [falling, full curve, poor fit] | –
5 | CCN(CC)C(=O)Oc1ccccc1NC(C)=O | -30.4 | – | –
6 | COc1cc(NC(=O)[C@H]2CCCN2S(=O)(=O)c2cccc3cccnc23)cc(OC)c1OC | 11 | 29.1 µM [rising, single point] | –
7 | Cc1ccc(-c2noc(CCC(=O)NC3CCN(Cc4ccccc4)CC3)n2)cc1 | -47.6 | 13 µM [falling, partial curve] | 8.2 µM [falling, partial curve]
8 | CC(=O)c1ccc(S(=O)(=O)N2CCN(C(=O)CCC3CCCC3)CC2)cc1 | -75 | – | 29.1 µM [falling, single point]
9 | Cc1ccc2nc(N3C(=O)C(O)=C(C(=O)c4ccco4)C3c3ccc(O)cc3)sc2c1 (stereo not drawn) | 14.5 | – | 0.00411 µM [rising, full curve, poor fit]
10 | CC1CCCN(c2c([N+](=O)[O-])c(=O)oc3ccccc23)C1 (stereo not drawn) | -64.9 | – | 29.1 µM [falling, single point]
11 | S=c1[nH]nc(COc2ccc(Cl)cc2)n1Cc1ccco1 | 5.32 | – | 0.13 µM [falling, full curve, poor fit]
12 | COc1ccc(S(=O)(=O)N2CCOCC2)cc1NC(=O)CN1CCN(C)CC1 | -32.3 | 20.6 µM [falling, single point] | 1.3 µM [falling, full curve, poor fit]
13 | Cc1cc(C)nc(Sc2ccc([N+](=O)[O-])cc2[N+](=O)[O-])n1 | – | 13 µM [falling, partial curve] | –
14 | CCCC1CC(C)(c2csc(Nc3ccc(OCC)cc3)n2)OC1=O (stereo not drawn) | -45.5 | 25.9 µM [falling, single point] | 23.1 µM [falling, single point]
15 | O=C(Nc1ccc(Cl)cc1)Nc1ccccc1CC[N+](=O)[O-] | 19.4 | – | –
16 | CN(CCCC(=O)NC1CC(C)(C)NC(C)(C)C1)S(=O)(=O)c1ccc([N+](=O)[O-])cc1 | -39 | 0.058 µM [falling, single point] | –
17 | COCCn1c(SCC(=O)Nc2ccc(C(C)=O)cc2)nnc1-c1ccco1 | 7.5 | – | –
18 | COc1ccnc2c1c(=O)n(Cc1ccc(Cl)cc1Cl)c(=O)n2C | 11 | – | –
19 | O=C(NCc1cccnc1)c1ccc2c(=O)n(CCCN3CCCC3=O)c(=S)[nH]c2c1 | 9.21 | 4.61 µM [rising, full curve] | –
20 | Cc1cccc(/C=N/NC(=O)c2ccc(NC(=O)c3ccccc3Cl)cc2)n1 | -9.57 | – | –
21 | COc1ccccc1CCNC(=O)C(C)n1nc(C)c2c(C)n(-c3ccccc3)nc2c1=O (stereo not drawn) | 14 | – | –

Exported comma-delimited: entries from further up
Row,Compound,cell number change [%],AC50 [1],AC50 [2]
2,COc1ccc(C2Nc3ccccc3C(=O)N2NS(=O)(=O)c2ccc(C)cc2)cc1OC (stereo not drawn),9.52,–,–
3,O=C(COC(=O)c1cc[n+]([O-])cc1)Nc1cccc(Br)c1,–,"29.1 µM [rising, single point]",–
6,COc1cc(NC(=O)[C@H]2CCCN2S(=O)(=O)c2cccc3cccnc23)cc(OC)c1OC,11,"29.1 µM [rising, single point]",–
7,Cc1ccc(-c2noc(CCC(=O)NC3CCN(Cc4ccccc4)CC3)n2)cc1,-47.6,"13 µM [falling, partial curve]","8.2 µM [falling, partial curve]"
8,CC(=O)c1ccc(S(=O)(=O)N2CCN(C(=O)CCC3CCCC3)CC2)cc1,-75,–,"29.1 µM [falling, single point]"
12,COc1ccc(S(=O)(=O)N2CCOCC2)cc1NC(=O)CN1CCN(C)CC1,-32.3,"20.6 µM [falling, single point]","1.3 µM [falling, full curve, poor fit]"
15,O=C(Nc1ccc(Cl)cc1)Nc1ccccc1CC[N+](=O)[O-],19.4,–,–
18,COc1ccnc2c1c(=O)n(Cc1ccc(Cl)cc1Cl)c(=O)n2C,11,–,–
19,O=C(NCc1cccnc1)c1ccc2c(=O)n(CCCN3CCCC3=O)c(=S)[nH]c2c1,9.21,"4.61 µM [rising, full curve]",–

(continued)

Row | Compound | cell number change [%] | AC50 [1] | AC50 [2]
22 | Cc1ccc(S(=O)(=O)NCCc2nnc(SCc3cccnc3)n2C)cc1 | – | 14.6 µM [rising, single point] | –
23 | Cc1cc2nc3c(=O)n(Cc4ccccc4)c(=O)[nH]c3nc2cc1N | – | 29.1 µM [falling, single point] | –
24 | Cc1ccc(C(=O)c2sc3nc4c(cc3c2N)CCC4)cc1 | 12.8 | 5.8 µM [rising, partial curve] | –
25 | Cc1cccc(CNCc2ccccc2)c1 | -33.3 | – | 29.1 µM [falling, single point]
26 | NNC(=O)c1sccc1OCc1ccc(Cl)cc1 | 46 | – | –
27 | Cc1ccc(/C(N)=N/OC(=O)C(C)c2ccc([N+](=O)[O-])cc2)cc1 (stereo not drawn) | 33.3 | – | 32.6 µM [rising, partial curve, poor fit]
28 | O=C(COC(=O)CCN1C(=O)c2ccccc2C1=O)Nc1ccc(S(=O)(=O)N2CCCC2)cc1 | 16.6 | – | –
29 | Cc1ccc(C(=O)n2c3ccccc3c3ccccc32)cc1 | 23 | 4.11 µM [falling, partial curve] | –
30 | O=C(c1cc(-c2ccc(Cl)c(Cl)c2)on1)N1CCCCCC1 | 26.2 | 29.1 µM [rising, single point] | –
31 | COCCNC(=O)c1ccc2snnc2c1 | 1.85 | 0.82 µM [falling, single point] | 0.291 µM [falling, partial curve, poor fit]
32 | Cc1ccc2nc3sc(C(=O)Nc4ccc(F)cc4)cc3cc2c1 | 37.1 | – | 29.1 µM [rising, single point]
33 | CC1CCC(C(=O)NC(C(=O)NCCCN2CCOCC2)C(C)C)CC1 (stereo not drawn) | -36.7 | 0.651 µM [falling, single point] | 0.461 µM [falling, partial curve, poor fit]
34 | CCn1c(SCC(=O)N(C)Cc2ccc(OC)c(F)c2)nc2cc(S(N)(=O)=O)ccc21 | 12.9 | – | –
35 | Cc1ccc2cc(CN(Cc3ccco3)C(=O)c3ccco3)c3nnnn3c2c1 | 11.5 | 32.6 µM [falling, single point] | –
36 | O=C(c1cccnc1)N1N=C(C2CC2)CC1(O)C(F)(F)F (stereo not drawn) | 32.9 | 29.1 µM [rising, single point] | 20.6 µM [rising, single point]
37 | COc1cccc(C(C(=O)NC2CCCCC2)N(C(=O)CNC(=O)c2ccco2)c2cccnc2)c1 (stereo not drawn) | 32.6 | – | –
38 | Cc1c(/C=N/NC(=O)c2ccc3c(c2)OCO3)cnn1C | 157 | – | –
39 | Cc1ccc(NC2=NC3(CCCC3)N=C(N)N2)c(C)c1 | 3.77 | 3.66 µM [rising, partial curve, poor fit] | –
40 | O=S(=O)(c1ccc(Br)cc1)c1cnc2ccccc2n1 | -51.6 | 10.3 µM [falling, partial curve] | 20.6 µM [falling, partial curve, poor fit]
41 | C=CCn1c(SCc2ccccc2)nc(O)cc1=O | 11 | 1.64 µM [falling, single point] | –
